Values of other authors, collected in US5728885A, “Method of preparing the enantiomers of O-dimethyltramadol” (priority 1996, dated 1998).

Settings: J. Pharmacol. Exptl. Ther. 267, 331 (1993); cited from earlier work

COc1cccc([C@@]2(O)CCCC[C@@H]2CN(C)C)c1.Cl (racemic) [racemic tramadol hydrochloride, (1RS, 2RS)-2-dimethylaminomethyl-1-(3-methoxy-phenyl)-cyclohexanol hydrochloride, reference compound]
inhibition of pain: strong inhibitor of pain
